In PubChem BioAssay AID1487 (National Center for Advancing Translational Sciences (NCATS), 2009):
This is one part of the list. The main result of the screen is listed elsewhere. These columns were measured beside it and carry no call. Compounds called inactive in the main read-out are mostly missing here. The note in brackets gives the kind of curve behind each potency; many fits are weak.

Experiment: qHTS Assay for Modulators of Lamin A Splicing
Conditions: HeLa LMNA splicing GFP/RFP minigene ratio, 48 h
Summary of the method: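 S3 HeLa cells stably expressing lamin A-EGFP splicing minigene plus DsRed2, 600 cells/well, 48 h compound exposure at 37C. Laser-scanning cytometry; analysed as GFP (500-530 nm)/RFP (575-640 nm) total intensity ratio; 0.5% DMSO vehicle.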

[1] = measured here: RFP viability control channel
[2] = measured here: GFP splicing reporter channel

Row | SMILES | AC50 [1] | AC50 [2]
1 | Cc1ccc(NS(=O)(=O)c2cc(NC(=O)C(C)Oc3ccccc3)ccc2C)c(C)c1 (stereo not drawn) | 35.5 µM [rising, single point] | 
2 | CCOc1ccc(/C=C2\SC(=S)NC2=O)cc1OC | 0.891 µM [rising, full curve, poor fit] | 0.794 µM [rising, full curve, poor fit]
3 | Clc1ccc(C[n+]2cc(-c3ccccc3)n3c2CCC3)cc1Cl | 11.2 µM [rising, partial curve] | 
4 | CCCC(=O)C1=C(O)C(C(=O)OC)C(C)(C)CC1=Nc1ccc(C)cc1 (stereo not drawn) | 35.5 µM [falling, single point] | 35.5 µM [falling, single point]
5 | CC(=O)C1=C(O)C(=O)N(CCc2c[nH]c3ccccc23)C1c1ccc(C)cc1 (stereo not drawn) |  | 0.00355 µM [rising, full curve, poor fit]
6 | CCOC(=O)Cc1csc(NC(=O)/C=C\c2ccccc2Cl)n1 | 22.4 µM [falling, single point] | 35.5 µM [falling, single point]
7 | CSc1cccc(NC(=O)C2CCN(S(=O)(=O)c3ccc(F)cc3)CC2)c1 | 25.1 µM [rising, single point] | 14.1 µM [rising, single point]
8 | COc1ccc(S(=O)(=O)N2CCCCCC2)cc1N(C)S(=O)(=O)c1ccccc1 | 14.1 µM [rising, single point] | 
9 | CCC(=O)OCCNc1cc(Sc2nc3ccccc3[nH]2)c2nonc2c1[N+](=O)[O-] | 25.1 µM [rising, single point] | 
10 | Cc1cc(C)cc(N(C)S(=O)(=O)c2nnc(NC(=O)COc3ccc(Cl)cc3)s2)c1 |  | 1.41 µM [falling, single point]
11 | CC(=O)c1cccc(NC(=O)CN2C(=O)CN(C)C(=O)c3ccccc32)c1 | 0.282 µM [falling, full curve] | 0.501 µM [falling, partial curve]
12 | CC(C)=CCC/C(C)=C/Cc1c(O)ccc(C(=O)/C=C/c2ccc(O)cc2)c1O | 14.1 µM [rising, partial curve] | 11.2 µM [rising, single point]
13 | Cc1ccc(N2CCN(c3cc(C)nc4c(-c5ccc(Cl)cc5)c(C)nn34)CC2C)cc1 (stereo not drawn) | 0.0355 µM [falling, full curve, poor fit] | 
14 | O=C(Cc1ccc([N+](=O)[O-])cc1)Nc1ccc(Cl)cc1 |  | 0.0708 µM [falling, full curve]
15 | Cc1cccc2cc(CN(Cc3cccs3)S(=O)(=O)c3ccc4c(c3)OCCO4)c(=O)[nH]c12 | 22.4 µM [rising, single point] | 
16 | COc1ccc(NS(=O)(=O)c2cc(Cl)ccc2Cl)cc1S(=O)(=O)N1CCCCC1 |  | 0.112 µM [rising, full curve]
17 | Cc1ccc(N2CCCCn3c2nc2c3c(=O)[nH]c(=O)n2C)cc1 | 15.8 µM [rising, single point] | 2.82 µM [rising, single point]

Part of the list above, comma-delimited:
Row,SMILES,AC50 [1],AC50 [2]
3,Clc1ccc(C[n+]2cc(-c3ccccc3)n3c2CCC3)cc1Cl,"11.2 µM [rising, partial curve]",
6,CCOC(=O)Cc1csc(NC(=O)/C=C\c2ccccc2Cl)n1,"22.4 µM [falling, single point]","35.5 µM [falling, single point]"

The list continues:

Row | SMILES | AC50 [1] | AC50 [2]
18 | O=C(CSc1cc(Cl)ccc1Cl)NC1CCCc2ccccc21 (stereo not drawn) |  | 5.01 µM [rising, partial curve]
19 | CS(=O)(=O)N1CCCC(c2nc(-c3ccc(S(=O)(=O)NCc4ccccc4)cc3)no2)C1 (stereo not drawn) | 3.16 µM [rising, full curve] | 3.98 µM [rising, full curve]
20 | COC(=O)c1c(-c2ccc(F)cc2)noc1N | 22.4 µM [rising, single point] | 
21 | O=C(c1cccs1)N1CCN(Cc2ccccc2[N+](=O)[O-])CC1 | 1.26 µM [rising, partial curve, poor fit] | 7.08 µM [rising, full curve, poor fit]
22 | O=C(NCc1ccco1)c1cc([N+](=O)[O-])cc([N+](=O)[O-])c1 | 35.5 µM [rising, single point] | 
23 | O=C(COc1ccc(Cl)cc1)Nc1nc(-c2ccc(S(=O)(=O)N3CCOCC3)cc2)cs1 | 31.6 µM [rising, single point] | 
24 | COc1ccc(C(=O)On2c(-c3ccc(Br)cc3)nc3ccccc3c2=O)cc1 | 31.6 µM [rising, single point] | 
25 | Cc1csc(NC(=O)CSc2nnc(-c3ccoc3C)n2CCc2ccccc2)n1 | 31.6 µM [rising, single point] | 35.5 µM [rising, single point]
26 | CC(C)NC(=S)N/N=C/c1cc(Br)ccc1O | 22.4 µM [rising, partial curve] | 14.1 µM [rising, single point]
27 | COc1ccc(CN2CN=C(Nc3nc4ccccc4s3)NC2)cc1 |  | 0.02 µM [falling, partial curve, poor fit]
28 | O=C(c1ccc(Cl)cc1)N1CCC(O)(CSc2ccc(Cl)cc2Cl)CC1 | 35.5 µM [falling, single point] | 35.5 µM [falling, single point]
29 | NS(=O)(=O)c1cccc(NC(=O)COC(=O)c2cc(-c3ccc(Cl)cc3)nc3ccccc23)c1 |  | 7.08 µM [falling, partial curve, poor fit]
30 | O=C(c1c(F)cccc1F)N1CCC(n2nnc3cc(C(F)(F)F)ccc32)CC1 | 2.82 µM [falling, single point] | 7.08 µM [falling, single point]
31 | C=CCN1C(=O)C(Cc2ccc(SC(F)F)cc2)SC1=Nc1ccc(C(=O)O)cc1 (stereo not drawn) | 35.5 µM [rising, partial curve, poor fit] | 
32 | O=C(NCc1cccs1)c1cc2c(s1)-c1ccccc1OC2 | 22.4 µM [rising, single point] | 15.8 µM [rising, single point]
33 | COc1ccc(NC(=O)C2CCN(S(=O)(=O)c3cccc4cccnc34)CC2)cc1 | 8.91 µM [rising, partial curve] | 
34 | CCOC(=O)C(NC(=O)Nc1ccc(Cl)cn1)(Oc1ccc(F)cc1)C(F)(F)F (stereo not drawn) |  | 35.5 µM [falling, single point]
